Test results as given in paper PMC12048556.
These are yes or no findings as the source states them, for the method shown. Binding seen in cells or lysates may run through a third protein. Some results given as binding are weak or reduced against the parent protein; the word gives no strength. Sequences can lack the tags named with a protein.

By UniProt entry, the sequences of proteins in these tests, tags left out.
UniProt P62140: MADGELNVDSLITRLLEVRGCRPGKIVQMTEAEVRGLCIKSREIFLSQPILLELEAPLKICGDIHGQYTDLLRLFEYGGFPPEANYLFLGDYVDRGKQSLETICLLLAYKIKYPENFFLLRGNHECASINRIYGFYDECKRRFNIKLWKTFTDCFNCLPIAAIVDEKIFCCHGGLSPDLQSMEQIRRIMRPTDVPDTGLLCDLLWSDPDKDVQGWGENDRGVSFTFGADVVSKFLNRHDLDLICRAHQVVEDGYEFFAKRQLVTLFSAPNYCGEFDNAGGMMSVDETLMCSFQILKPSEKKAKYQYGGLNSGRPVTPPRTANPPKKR

B1: HA-tagged WT NUAK1 (enzyme, UniProt O60285 1-661)
chain: MEGAAAPVAGDRPDLGLGAPGSPREAVAGATAALEPRKPHGVKRHHHKHNLKHRYELQETLGKGTYGKVKRATERFSGRVVAIKSIRKDKIKDEQDMVHIRREIEIMSSLNHPHIISIYEVFENKDKIVIIMEYASKGELYDYISERRRLSERETRHFFRQIVSAVHYCHKNGVVHRDLKLENILLDDNCNIKIADFGLSNLYQKDKFLQTFCGSPLYASPEIVNGRPYRGPEVDSWALGVLLYTLVYGTMPFDGFDHKNLIRQISSGEYREPTQPSDARGLIRWMLMVNPDRRATIEDIANHWWVNWGYKSSVCDCDALHDSESPLLARIIDWHHRSTGLQADTEAKMKGLAKPTTSEVMLERQRSLKKSKKENDFAQSGQDAVPESPSKLSSKRPKGILKKRSNSEHRSHSTGFIEGVVGPALPSTFKMEQDLCRTGVLLPSSPEAEVPGKLSPKQSATMPKKGILKKTQQRESGYYSSPERSESSELLDSNDVMGSSIPSPSPPDPARVTSHSLSCRRKGILKHSSKYSAGTMDPALVSPEMPTLESLSEPGVPAEGLSRSYSRPSSVISDDSVLSSDSFDLLDLQENRPARQRIRSCVSAENFLQIQDFEGLQNRPRPQYLKRYRNRLADSSFSLLTDMDDVTQVYKQALEICSKLN
B2: self-inhibitory protein I-2 (protein, UniProt P41236 1-205)
chain: MAASTASHRPIKGILKNKTSTTSSMVASAEQPRGNVDEELSKKSQKWDEMNILATYHPADKDYGLMKIDEPSTPYHSMMGDDEDACSDTEATEAMAPDILARKLAAAEGLEPKYRIQEQESSGEEDSDLSPEEREKKRQFEMKRKLHYNEGLNIKLARQLISKDLHDDDEDEEMLETADGESMNTEESNQGSTPSDQQQNKLRSS

Target: protein phosphatase-1beta (PP1B) (human (endogenous in H2030)) (UniProt P62140)
Experiment: co-IP; Co-IP of PP1B from lysates of H2030 (also H23, MGH1112-1) EV and LKB1 cells over-expressing HA-tagged NUAK1 WT or GKKK; blots for HA-NUAK1, PP1B and I-2

Binder | binding
B1 | binds
B2 | binds
